These are yes or no findings as the source states them, for the method shown. Binding seen in cells or lysates may run through a third protein.
Biological target: T1, Excitatory Amino Acid Carrier 1 (EAAC1), rat (rat (endogenous in hippocampus, cortex, heart and C6 glioma cells)) (UniProt P51907)
T1 sequence: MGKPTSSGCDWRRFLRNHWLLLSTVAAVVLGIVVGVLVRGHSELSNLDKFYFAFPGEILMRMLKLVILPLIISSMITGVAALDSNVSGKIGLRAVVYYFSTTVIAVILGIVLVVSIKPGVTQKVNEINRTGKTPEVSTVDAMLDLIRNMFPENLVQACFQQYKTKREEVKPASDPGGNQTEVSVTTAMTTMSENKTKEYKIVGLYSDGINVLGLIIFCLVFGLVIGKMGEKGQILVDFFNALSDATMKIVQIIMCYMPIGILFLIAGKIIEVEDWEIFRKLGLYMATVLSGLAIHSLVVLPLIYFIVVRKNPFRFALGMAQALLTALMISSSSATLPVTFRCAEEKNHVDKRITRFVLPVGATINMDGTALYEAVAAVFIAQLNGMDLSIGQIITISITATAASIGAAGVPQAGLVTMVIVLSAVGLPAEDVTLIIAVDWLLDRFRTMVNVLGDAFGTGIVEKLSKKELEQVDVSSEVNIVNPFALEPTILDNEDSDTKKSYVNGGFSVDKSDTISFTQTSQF
Assay: co-IP; mitochondrial protein extracts from rat hippocampus and cortex; immunoprecipitation with mouse monoclonal anti-EAAC1 or anti-NCX1 (R3F1) antibody, A-Sepharose beads, western blot; normal mouse serum as negative control

binding: no binding
Substance: adenine nucleotide translocase (ANT), rat

Source: paper PMC3316532
